Data as given in PMC10531093, “First-Generation Synthetic Cathinones Produce Arrhythmia in Zebrafish Eleutheroembryos: A New Approach Methodology for New Psychoactive Substances Cardiotoxicity Evaluation” (International Journal of Molecular Sciences, 2023).

Tested on: zebrafish embryos
Test: Twenty-four-hour acute toxicity test (lethality and abnormalities, 4 to 5 dpf)
Format: in vivo, Danio rerio
Settings: for Hill Slope: lethality concentration-response curve, 24 h exposure; for Hill slope factor, times higher than for the other illicit drugs: 24 h lethality curves
Experimental: Experiments were conducted to assess lethality after 24 h exposure and quantify drug-induced effects on heart rate after 2 h exposure. Experiments were performed on day 4 of zebrafish development (4 dpf). On the day of the experiment, eleutheroembryos (hereafter embryos) were distributed into a 6-well plate (Thermo-Fisher Scientific, Madrid, Spain) by adding 12 embryos into each well with 5 mL of test solution. Embryos were exposed by immersion at 20 min intervals so that they could be mounted individually by ensuring equal exposure times in all groups. Each drug was tested at different concentrations (ranging from 1 to 1000 µM) in parallel with a control group (Goods buffer TAPS alone). The concentration range used was based on previous experiments with MDMA [58].
Embryos at 4 dpf were distributed to 6-well plates, and 10 embryos were placed into each well with 5 mL of drug test solution. Plates were incubated at 26 ± 1 °C under a 14:10 light:dark cycle for 24 h. Following 24 h exposure, endpoints used for assessing lethality (coagulation or lack of heartbeat) and morphological/functional abnormalities were recorded for each treatment group. Each drug was tested at different concentrations, and at least three independent experiments were performed.
Concentration–response curves were derived from 2 h exposures and the 24 h acute toxicity test as effective concentrations 50 (EC50) and lethal concentrations 50 (LC50), respectively. Concentration–response curves were obtained with a sigmoidal concentration–response equation (Hill equation) using the package drc in R software (v.R-3.6.1).

Compound: COC(=O)[C@H]1[C@@H](OC(=O)c2ccccc2)C[C@@H]2CC[C@H]1N2C [Cocaine, cocaine]
- Hill Slope: 2.81

Compound: CNC(C)Cc1ccc2c(c1)OCO2 (stereo not shown) [MDMA, 3,4-methylenedioxy-methamphetamine]
- Hill Slope: 2.65

Compound: CCCC(C(=O)c1ccc2c(c1)OCO2)N1CCCC1 (stereo not shown) [MDPV, 3,4-methylenedioxy-pyrovalerone]
- Hill slope factor, times higher than for the other illicit drugs: approximately 3 times
- Hill Slope: 6.88

Compound: CNC(C)C(=O)c1ccc(C)cc1 (stereo not shown) [Mephedrone, mephedrone]
- Hill Slope: 1.86

Compound: CNC(C)C(=O)c1ccc2c(c1)OCO2 (stereo not shown) [Methylone, methylone]
- Hill slope factor, times higher than for the other illicit drugs: ~7.5 times
- Hill Slope: 15.3
